Results are given in words; binding and its absence hold for the method and conditions named. In cells and extracts the contact can be indirect. Some results given as binding are weak or reduced against the parent protein; the word gives no strength.
Experiments:
[1] = target: rat μ-opioid receptor conjugated to yellow fluorescent protein (rat) (UniProt P33535); experiment: condition: only 1 μM diprenorphine for 10 min before 10 μM DAMGO; FRET or BRET; as a1, but cells incubated with 1 μM diprenorphine for 10 min before addition of 10 μM DAMGO
[2] = target: rat μ-opioid receptor conjugated to yellow fluorescent protein (rat) (UniProt P33535); experiment: FRET or BRET; intact HEK 293 cells co-transfected 1:1 with MOPr-YFP and arrestin-3-Rluc; agonist (DAMGO or norbuprenorphine) and coelenterazine added at time 0; luminescence read over 10 min; percent increase in BRET ratio over control cells
[3] = target: rat μ-opioid receptor conjugated to yellow fluorescent protein (rat) (UniProt P33535); experiment: FRET or BRET; as a1, but cells treated with buprenorphine
[4] = target: rat μ-opioid receptor conjugated to yellow fluorescent protein (rat) (UniProt P33535); experiment: condition: only with 1 μM diprenorphine alone (no agonist); FRET or BRET; as a1, but cells treated with 1 μM diprenorphine alone (0.01% DMSO)

Sequences of proteins named here, by UniProt entry; tags and fusion partners are left off.
UniProt P33535: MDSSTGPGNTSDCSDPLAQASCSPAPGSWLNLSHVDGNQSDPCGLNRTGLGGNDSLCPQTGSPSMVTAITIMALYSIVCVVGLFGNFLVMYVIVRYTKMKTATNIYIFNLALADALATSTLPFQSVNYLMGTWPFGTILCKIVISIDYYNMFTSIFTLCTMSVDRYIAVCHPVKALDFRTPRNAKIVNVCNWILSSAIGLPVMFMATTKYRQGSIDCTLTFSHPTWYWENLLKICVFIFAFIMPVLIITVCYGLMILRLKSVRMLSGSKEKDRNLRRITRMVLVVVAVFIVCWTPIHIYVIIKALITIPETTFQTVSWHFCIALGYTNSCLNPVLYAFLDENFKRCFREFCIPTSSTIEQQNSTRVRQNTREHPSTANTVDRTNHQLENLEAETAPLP
UniProt P32121: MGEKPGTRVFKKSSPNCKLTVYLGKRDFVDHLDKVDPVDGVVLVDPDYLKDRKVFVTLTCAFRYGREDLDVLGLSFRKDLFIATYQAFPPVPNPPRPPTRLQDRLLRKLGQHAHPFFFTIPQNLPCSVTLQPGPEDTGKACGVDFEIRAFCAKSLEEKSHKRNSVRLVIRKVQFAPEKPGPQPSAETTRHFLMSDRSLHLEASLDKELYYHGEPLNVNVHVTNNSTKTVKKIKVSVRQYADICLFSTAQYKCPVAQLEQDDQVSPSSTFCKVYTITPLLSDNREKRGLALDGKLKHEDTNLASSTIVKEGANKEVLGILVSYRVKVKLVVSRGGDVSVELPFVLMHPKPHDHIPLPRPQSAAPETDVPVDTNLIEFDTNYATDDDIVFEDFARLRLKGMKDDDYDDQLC

Substance: arrestin-3 tagged with renilla luciferase (from UniProt P32121 1-409)
- binding [1]: no binding
- binding [2]: binds
- binding [3]: binds weakly
- binding [4]: no binding

Source: article PMC5472181
